For part of these data: Strings that start with PEPTIDE1 are HELM notation: dots part the residues, brackets hold end groups and non-standard residues. Residues, ends and D or L forms follow the SMILES beside them.
What was measured:
[1] = Label-free MST, peptide binding to 100 nm vesicles; conditions: curved LUVs by MST versus planar lipid conditions
Description: For KD evaluation by MST, FHot was registered during the temperature related intensity change (TRIC) phase of the MST trace (see “Methods”). The advantage of evaluating KD during the TRIC phase is that any potential effects of prolonged heating on the thermostability of the sample that may influence the binding can be avoided. The dose–response profile of MST response against lipid concentration for 1–5 largely follows a sigmoidal curve shape (Fig. 3A,B).
DMPC and DMPC:5% DMPG vesicles were prepared by solubilising a known weight of lipid in chloroform with a small amount of methanol to assist in the dissolution of the PG lipid head groups. The chloroform stock was dried in vacuo to produce a lipid film, which was further dried for additional 3 h. The lipid film was solubilised in 10 mM TRIS buffer (pH 7.4) containing 100 mM NaCl to yield a 20 mM milky lipid stock.
To produce the working vesicle stock, 1 mL of vesicle stock was extruded 20 times through a 0.1 µm filter using an Avanti Lipids mini-extruder. Vesicle size was confirmed using a Malvern Zetasizer Nano ZS (Malvern Panalytical Ltd, Malvern, United Kingdom).
All MST measurements were conducted on a NanoTemper Monolith NT. Labelfree instrument, using Monolith NT. Labelfree standard treated zero background capillaries. […]
MST measurements were conducted with excitation power set to 15%, with the MST power set to high. […] For the evaluation of KP, the initial fluorescence was taken as the value reported during the period before the application of the laser. The MST response and initial fluorescence were extracted directly as a text file for further processing in MATLAB.
In a typical binding experiment that yields a sigmoidal curve, the Hill equation can be fitted to yield KD:[66]6 y=y0+EMaxLipid^n/KDn+Lipid^n where y is the MST response, y0 is the MST response of the AMP in an aqueous solution (i.e., in the absence of lipids), n is the Hill coefficient, and EMax is the maximal effect of the tested substrate. […] Erroneous points were identified by poor MST trace shapes or higher than expected initial fluorescence that was absent in the other replicates or subsequent points, but otherwise no further treatment of data was necessary. […]
The Kp of a molecule can be determined experimentally by observing changes in fluorescent intensity in the presence of an increasing concentration of lipid, and fitting to Eq. (8)[43].8 I/Iaq=1+KpVmLipidIL/Iaq/1+KPVmLipid
In Eq. (8) the fluorescence intensity of the AMP (I) is normalised to the fluorescence intensity of the AMP in an aqueous environment (Iaq), Vm is the molar volume of the lipids and IL is the fluorescence intensity of the AMP in the lipidic environment. […]

[2] = general procedure: Fmoc solid-phase peptide synthesis; 2-chlorotrityl chloride resin; HBTU/HOBt/DIEA; conditions: cyclisation step, relative to linear precursor

Molecule | improvement in binding (KD) to LUVs compared with planar lipid conditions (SPR and SMA-QA) [1] | cyclisation yield [2] [%]
N=C(N)NCCC[C@@H]1NC(=O)[C@H](CCCNC(=N)N)NC(=O)[C@H](Cc2c[nH]c3ccccc23)NC(=O)[C@H](Cc2c[nH]c3ccccc23)NC(=O)[C@H](Cc2c[nH]c3ccccc23)NC(=O)[C@H](CCCNC(=N)N)NC1=O [compound 1] (cyclo(WWWRRR)) | tenfold | 
N=C(N)NCCC[C@@H]1NC(=O)[C@H](Cc2c[nH]c3ccccc23)NC(=O)[C@H](CCCNC(=N)N)NC(=O)[C@H](Cc2c[nH]c3ccccc23)NC(=O)[C@H](CCCNC(=N)N)NC(=O)[C@H](Cc2c[nH]c3ccccc23)NC1=O [compound 2] (cyclo(WRWRWR)) | fourfold | 
NCCCC[C@@H]1NC(=O)[C@H](CCCCN)NC(=O)[C@H](Cc2c[nH]c3ccccc23)NC(=O)[C@H](Cc2c[nH]c3ccccc23)NC(=O)[C@H](Cc2c[nH]c3ccccc23)NC(=O)[C@H](CCCCN)NC1=O [compound 3] (cyclo(WWWKKK)) | tenfold | 
NCCCC[C@@H]1NC(=O)[C@H](Cc2c[nH]c3ccccc23)NC(=O)[C@H](CCCCN)NC(=O)[C@H](Cc2c[nH]c3ccccc23)NC(=O)[C@H](CCCCN)NC(=O)[C@H](Cc2c[nH]c3ccccc23)NC1=O [compound 4] (cyclo(WKWKWK)) | fourfold | 
PEPTIDE1{L.W.[dW].N.K.[dR]}$PEPTIDE1,PEPTIDE1,1:R1-6:R2$$$V2.0 |  | 44.9
PEPTIDE1{W.K.W.K.W.K}$PEPTIDE1,PEPTIDE1,1:R1-6:R2$$$V2.0 |  | 41.8
PEPTIDE1{W.R.W.R.W.R}$PEPTIDE1,PEPTIDE1,1:R1-6:R2$$$V2.0 |  | 22.6
PEPTIDE1{W.W.W.K.K.K}$PEPTIDE1,PEPTIDE1,1:R1-6:R2$$$V2.0 |  | 39.0
PEPTIDE1{W.W.W.R.R.R}$PEPTIDE1,PEPTIDE1,1:R1-6:R2$$$V2.0 |  | 30.0

From paper PMC10400562 (Scientific Reports, 2023)
